Binding signal data for 42 sequences are collected here from paper PMC7819943, “Rice protein-binding microarrays: a tool to detect cis-acting elements near promoter regions in rice”.

Protein sequences, listed by entry. Tags and fused reporters are not part of them.
UniProt Q0JBA9, entry or part of it: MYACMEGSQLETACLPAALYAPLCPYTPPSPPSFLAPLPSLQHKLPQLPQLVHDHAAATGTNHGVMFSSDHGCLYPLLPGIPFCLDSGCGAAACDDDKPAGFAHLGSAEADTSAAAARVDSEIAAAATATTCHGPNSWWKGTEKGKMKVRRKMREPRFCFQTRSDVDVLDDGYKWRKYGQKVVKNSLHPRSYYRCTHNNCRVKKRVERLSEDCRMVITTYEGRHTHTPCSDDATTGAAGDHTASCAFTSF

The other results are listed elsewhere or left out.

The test deals with OsWRKY34 (Oryza sativa, UniProt Q0JBA9 1-250). As to the kind of experiment: protein-binding microarray (RPBM); PBS, 2% BSA, 51.3 ng/ul salmon testes DNA, 50 uM zinc acetate, 200 nM TF, 25 C, 1 h; high values mean tight binding. The conditions noted are these: protein: recombinant; tags: N-terminal polyhistidine and DsRed monomer fusion (pET32a); label: CyDye5-dUTP incorporated in the synthesized complementary strand; 3' TTTTT single-stranded linker to array surface; dsDNA, one strand shown. The essentials:
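Binding signal is defined as the fluorescence intensity of each feature in arbitrary units, read on an Axon 4000B scanner. Transcription factors with N-terminal polyhistidine and DsRed fusions came from E. coli BL21-CodonPlus and were purified on Ni–NTA. They were incubated at 200 nM for 1 h at 25 °C on a custom Agilent array that had been made double-stranded with Cy5-dUTP, with 50 µM zinc acetate present, and the array was washed.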
For “TTATACGAACTCTATATTGCTTATTTGTAATTCCGAATTTCGGAGTCACCTAGTGCAG”, the binding signal is 8240 fluorescence intensity (a.u.).

With “ACTCGCTCCATTCCATCCCTAAATATTTCACACCGTTAACCGGAGTCACCTAGTGCAG”, the binding signal was 10300 fluorescence intensity (a.u.).

With “CGCGCTCCGTCTTCCACGCGTGGTGGTGGGGAGGGTATTTCGGAGTCACCTAGTGCAG”, the binding signal is 12500 fluorescence intensity (a.u.).

On to “CTAACACTATTAGGTACTACTTCCTCGGTTTCATATTATACGGAGTCACCTAGTGCAG”, for which the binding signal is 9840 fluorescence intensity (a.u.).

On to “ATTAATTGATTGGATTGGTTGTGTGCATTATTTCATCTAACGGAGTCACCTAGTGCAG”, for which the binding signal was 8380 fluorescence intensity (a.u.).

For “TTTCAGTAGCGTCGGCTGCTCTATCTACTTGCATTGCCTGCGGAGTCACCTAGTGCAG”, the binding signal is 8320 fluorescence intensity (a.u.).

Regarding “CTTCTCCCTTACGTTCCGTTTGCATCATCTGCCTTGCACACGGAGTCACCTAGTGCAG”, the binding signal was 8640 fluorescence intensity (a.u.).

Turning to “CGTTTCTCTTTCTTTCTTCCCTTCGGTTTCTCCTCCTCTCCGGAGTCACCTAGTGCAG”, the binding signal was 10600 fluorescence intensity (a.u.).

For the sequence “TCCTCTACTGGGGATGGGTGGAGAGTGAAGAAACCGACGCCGGAGTCACCTAGTGCAG”, the binding signal is 8040 fluorescence intensity (a.u.).

Turning to “TTTATACCCTCCTGATCAGTGCATCTAGTGCCGTCATCCTCGGAGTCACCTAGTGCAG”, the binding signal is 8160 fluorescence intensity (a.u.).

As to “GAGTTTCCGTGTACAAATTTAATCGTTCGTCTTATTTAAACGGAGTCACCTAGTGCAG”, the binding signal is 13300 fluorescence intensity (a.u.).

On to “GGCGGCTGGTCAGTACTTGCTTGCATCTGAATAGGAACTGCGGAGTCACCTAGTGCAG”, for which the binding signal is 8120 fluorescence intensity (a.u.).

As for “TCGTATTTGTGTCCGATCATATTCGATTCTTATTTGTATTCGGAGTCACCTAGTGCAG”, the binding signal is 9480 fluorescence intensity (a.u.).

As for “CATCCGATTGCCATATCCAACGGCGTCAATCTTCTCCCCACGGAGTCACCTAGTGCAG”, the binding signal is 8530 fluorescence intensity (a.u.).

On to “CACCACTAGCATTCTTCTTCTCCATCCATCCATCCATCCACGGAGTCACCTAGTGCAG”, for which the binding signal is 14200 fluorescence intensity (a.u.).

With “TAGATAACGTCATTGACTTTTTCTCACATATTTGACCATTCGGAGTCACCTAGTGCAG”, the binding signal is 12400 fluorescence intensity (a.u.).

Turning to “GTCCTTGCTACGATTTTTATTACCCCATGGACCCCACCTTCGGAGTCACCTAGTGCAG”, the binding signal is 10800 fluorescence intensity (a.u.).

For the sequence “TTACGAACTCGCGCTGCCCCTTGCGCCCATGCCGTTGGCGCGGAGTCACCTAGTGCAG”, the binding signal was 8460 fluorescence intensity (a.u.).

For the sequence “GAATCTGGAACTGCTCTGGTGTTAATGTGACTTGTGTTGCCGGAGTCACCTAGTGCAG”, the binding signal was 10600 fluorescence intensity (a.u.).

In the case of “CAGACCCTAAGCTTCAGACGCGGCCCCATCTACAGCCACTCGGAGTCACCTAGTGCAG”, the binding signal is 8120 fluorescence intensity (a.u.).

Regarding “ATTTAGTTCTCAACATACCCCTTTTCATCTTTTTGTCAGACGGAGTCACCTAGTGCAG”, the binding signal was 8840 fluorescence intensity (a.u.).

On to “TCCACCTGAGTATATATAGTTATCTTATAGCCTACTTCCTCGGAGTCACCTAGTGCAG”, for which the binding signal is 11400 fluorescence intensity (a.u.).

With “AAAATCGGATATATTGCAAAACCATTTATTCGTGTGTTTTCGGAGTCACCTAGTGCAG”, the binding signal is 8310 fluorescence intensity (a.u.).

In the case of “GAACGAACGAACACCACAAGGTGTCCACAACACAAAGCCGCGGAGTCACCTAGTGCAG”, the binding signal was 8250 fluorescence intensity (a.u.).

Regarding “CGTTTTCATCTCGTAGTTGCTTGATTGATCTTCGAACTTTCGGAGTCACCTAGTGCAG”, the binding signal is 9250 fluorescence intensity (a.u.).

For “ATTAATTTCTGATCCCACCTGTCATACACATATTGTTTCTCGGAGTCACCTAGTGCAG”, the binding signal is 14300 fluorescence intensity (a.u.).

As to “AATTTGTATTCAATGCTTCATACACGTGTCCAATGATTTACGGAGTCACCTAGTGCAG”, the binding signal was 8250 fluorescence intensity (a.u.).

In the case of “ACCATCTCTCTATGGTACATCCCCGTAATGTTCTCTTACACGGAGTCACCTAGTGCAG”, the binding signal was 9210 fluorescence intensity (a.u.).

Take “TGTATTGTTCTGAGTTACAGCAGATGTATCTCTTTTTTTTCGGAGTCACCTAGTGCAG”: the binding signal was 9710 fluorescence intensity (a.u.).

“CTAACACTTAATTAATCACGCGATACTACATCGTCTTTTTCGGAGTCACCTAGTGCAG”: the binding signal was 9750 fluorescence intensity (a.u.).

Consider “CGAATTATTACGGCCATCCGTAGTCACCACCTCCTTTGACCGGAGTCACCTAGTGCAG”, for which the binding signal is 9100 fluorescence intensity (a.u.).

“ACCCACTCACAGCTGATGATCATCAATCACTCCGGTAATTCGGAGTCACCTAGTGCAG”: the binding signal is 10300 fluorescence intensity (a.u.).

Consider “GAGCCTACCTCTACACTCATGCTCACCGCCGCTGTTCCTCCGGAGTCACCTAGTGCAG”, for which the binding signal was 8140 fluorescence intensity (a.u.).

On to “GTGTCACTCGTGTAGTAGGATGGCAATGGGGCGGGTCGGGCGGAGTCACCTAGTGCAG”, for which the binding signal is 13800 fluorescence intensity (a.u.).

Regarding “CTGGGTTTTACATTTGGTCCGCTTCACACGCACCAACAGACGGAGTCACCTAGTGCAG”, the binding signal was 9690 fluorescence intensity (a.u.).

For the sequence “CAAGCCGCTCCGCCTCGTTTCCATCGCCGCCACCACCGCCCGGAGTCACCTAGTGCAG”, the binding signal is 8480 fluorescence intensity (a.u.).

As for “TTTTCATCATTCTAGAGGATATCTCCTTGTTGTATCATCTCGGAGTCACCTAGTGCAG”, the binding signal is 8600 fluorescence intensity (a.u.).

Take “TTCAAGTACGAATTCTTGACCCATCCGACGAGCTTTTACACGGAGTCACCTAGTGCAG”: the binding signal is 12000 fluorescence intensity (a.u.).

For “GGGCAATTTGTTTCCCTCCGGAAGAATGTTCTTGACGAGTCGGAGTCACCTAGTGCAG”, the binding signal was 8120 fluorescence intensity (a.u.).

With “ATCTCCATTTTCCTCTCTTTCTCGTTGCGATTTGAGAATTCGGAGTCACCTAGTGCAG”, the binding signal is 10100 fluorescence intensity (a.u.).

As for “TGTGTTGGTAGTGTGGCATGACTTGGTTTCATTTGCACGGCGGAGTCACCTAGTGCAG”, the binding signal was 8200 fluorescence intensity (a.u.).

In the case of “AAACTTGCATTTCTCATTTTTTGCAGTTACATTTCTGATTCGGAGTCACCTAGTGCAG”, the binding signal is 8980 fluorescence intensity (a.u.).
